The assay in a line: qHTS Assay for Lipid Storage Modulators in Drosophila S3 Cells.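 On cell number change: cells counted by Cell Tracker Red CMTPX staining in the red channel.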 The following applies: BODIPY lipid droplet fluorescence, 18-24 h; for cell number change: measured here: cell count max response, cells fed with added oleic acid. The essentials:
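Laser-scanning cytometry quantifies lipid droplet accumulation (500–530 nm total intensity; droplet/cell object ratio) in oleic acid-fed (400 uM added) Drosophila S3 cells treated with a concentration series. 20 uM Triacsin C defined 100% inhibition.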

[1] abbreviates: measured here: cell number channel AC50, cells fed with added oleic acid.
Where [2] appears, read: measured here: lipid fluorescence (Fed channel) AC50, cells fed with added oleic acid.

The other results are listed elsewhere or left out. Shown are side measurements of this screen, not its main read-out; they come without a call. The list favours compounds with an active or inconclusive main result. The note in brackets gives the kind of curve behind each potency; many fits are weak.

Turning to `CCN(CC(=O)NCc1ccc(Cl)cc1)C(=O)/C=C/c1cc(OC)c(OC)c(OC)c1`, the cell number change was -3.97%. `C/C(=N\NC(=S)Nc1cc(S(=O)(=O)N2CCOCC2)ccc1Cl)c1ccccc1F`: the cell number change worked out at 13.3%. For the same compound, the AC50 under setting [1] was 2.06 µM [rising, single point]. With `CCOC(=O)N1CCN(C(=O)C2CC(=O)N(c3ccc(C)cc3)C2)CC1` (stereo not drawn), the cell number change is -3.41%. Further, the AC50 under setting [1] was 7.31 µM [falling, partial curve, poor fit]. The half-maximal activity concentration (AC50) under setting [2] was 0.58 µM [falling, single point]. Consider `CCCOc1cccc(C(=O)NCCNC(=O)c2ccc(C)nc2)c1`, for which the cell number change worked out at 2.52%. As for `Cn1cnnc1SCc1ccc(C(=O)N/N=C/c2cccs2)cc1`, the cell number change stood at 25.2%. Moreover, the AC50 under setting [1] was 0.0291 µM [rising, full curve, poor fit]. In addition, the AC50 under setting [2] was 4.11 µM [rising, partial curve, poor fit]. Consider `COc1ccc([C@H]2CC(=O)C=C(c3cccc(CO)c3)C2)cc1`, for which the cell number change was -11.8%. For the same compound, the AC50 under setting [2] is 0.00411 µM [falling, full curve, poor fit]. As to `c1cc2c3c(cccc3c1)NC1(CCCCC1)N2`, the cell number change was -19.3%. In addition, the AC50 under setting [2] was 16.4 µM [falling, partial curve]. Take `CCOc1ccc(NC(=O)CCN2CCN(C)CC2)cc1`: the cell number change was determined as 3.44%.

Take `CC/C(=C/c1sc2ccc(C)cc2[n+]1CCCS(=O)(=O)[O-])SC`: the cell number change is -36.6%. Further, the AC50 under setting [1] is 32.6 µM [falling, single point]. `COc1ccc([C@H]2CC(=O)C=C(c3c(C)cc(C)cc3C)C2)cc1`: the concentration at half-maximal activity (AC50) by setting is: under setting [1], 2.91 µM [rising, single point]; under setting [2], 3.26 µM [falling, partial curve]. On to `Cc1ccc(CN2CCNC(=O)C2CC(=O)N(C)Cc2cnccn2)cc1` (stereo not drawn), for which the cell number change was -25.4%. `c1coc(-c2ncc[nH]2)c1`: the cell number change came out at 11%. Further, the half-maximal activity concentration (AC50) under setting [2] was 2.06 µM [rising, partial curve]. Regarding `Cc1cc(C)c(NC(=O)CNC(=O)[C@@H]2CCCN2C(=O)c2cccs2)c(C)c1`, the cell number change is 32.1%. The AC50 under setting [1] was 14.6 µM [rising, partial curve, poor fit]. Moreover, the AC50 under setting [2] was 29.1 µM [rising, single point].

For `CC(=O)c1ccccc1OCC(=O)Nc1cccc(S(=O)(=O)N2CCCC2)c1`, the cell number change was 15.4%. Under setting [2], the half-maximal activity concentration (AC50) was 8.2 µM [rising, partial curve]. Regarding `COc1ccc(CN(CCC(c2ccccc2)c2ccc(OC(C)C)cc2)C(=O)CCl)cc1OC` (stereo not drawn), the cell number change was -32.1%. The AC50 under setting [1] was 6.51 µM [falling, partial curve]. In addition, the AC50 under setting [2] is 9.2 µM [falling, partial curve, poor fit]. As for `O=C(c1cccc(C(F)(F)F)c1)N1CCOC12CCN(c1ncc(C(F)(F)F)cc1Cl)CC2`, the cell number change was -24.4%. Turning to `CC1CCN(Cc2ccc(NC(=O)C3CCN(c4nnc(-n5cccc5)s4)CC3)cc2)CC1`, the cell number change is -20.2%. In addition, the half-maximal activity concentration (AC50) under setting [2] was 0.58 µM [falling, single point]. Take `COc1cccc(CCc2nnc(CCC(=O)NC(C)Cc3cccs3)o2)c1` (stereo not drawn): the cell number change is -17.4%. For the same compound, under setting [2], the AC50 was 7.31 µM [falling, partial curve].

For the compound `O=C(NCC1CCCO1)c1ccc[nH]1` (stereo not drawn), the cell number change is -25.9%. Under setting [2], the AC50 is 3.66 µM [falling, full curve].

For the compound `CCSc1nsc(NC(=O)Nc2ccccc2OC)n1`, the cell number change was -10.5%. Further, the AC50 under setting [2] was 29.1 µM [falling, single point].

`Cc1nc(N2CCN(C(=O)c3ccc(Cl)cc3)CC2)c(C#N)c2c1COC(C)(C)C2`: the cell number change is -11.1%. The concentration at half-maximal activity (AC50) under setting [2] is 18.4 µM [rising, partial curve].

`S=c1[nH]nc(-c2ccc(Cl)cc2)n1/N=C/c1cccs1`: the cell number change is -30.6%. Under setting [1], the AC50 was 20.6 µM [falling, partial curve, poor fit]. The AC50 under setting [2] is 29.1 µM [falling, single point]. In the case of `COc1ccc(C(=O)c2c[nH]c(C(=O)NCc3cccs3)c2)cc1`, the cell number change is 12.3%. On the same count and under the same terms, under `COn1c(-c2ccccc2)nc2c1CCc1nonc1-2` stands 10.5%; under `O=C1OCCC1Sc1nnc(-c2cccs2)n1Cc1ccccc1` (stereo not drawn), 7.41%. As for `O=C(NCc1ccccn1)NC12CC3CC(CC(C3)C1)C2`, the AC50 under setting [2] was 0.461 µM [falling, single point]. In the case of `COc1ccc(CCN2CNc3c(c(=O)n(C)c(=O)n3C)C2)cc1OC`, the cell number change stood at 2.28%. On to `Cc1oc2nc(SCC(=O)Nc3ccc(S(N)(=O)=O)cc3)nc(NC(=O)c3ccccc3)c2c1C`, for which the cell number change was -82.2%. Further, the AC50 under setting [2] was 29.1 µM [falling, single point]. On to `Cc1cc(S(=O)(=O)NCc2ccccc2)ccc1OCC(=O)NCc1ccccn1`, for which the AC50 under setting [2] is 7.31 µM [falling, partial curve]. Turning to `CCCN(CC(=O)NC(=O)NC1CCCCC1)CC(=O)Nc1cc(Cl)ccc1Cl`, the cell number change is -42.9%. The AC50 under setting [1] is 32.6 µM [falling, partial curve]. Also, the AC50 under setting [2] is 20.6 µM [falling, partial curve, poor fit]. On to `CCCn1c(CNC(=O)Cc2ccccc2)nc2ccccc21`, for which, under setting [2], the AC50 was 0.116 µM [falling, full curve, poor fit]. For the compound `Cc1ccc(N2CC(C(=O)Nc3ccc(N4CCOCC4)cc3)CC2=O)cc1C` (stereo not drawn), the cell number change is -4.2%. In addition, the AC50 under setting [2] is 0.184 µM [rising, partial curve, poor fit]. With `CCN(Cc1ccccc1)C(=O)CC(=O)N(CC)Cc1ccccc1`, the cell number change was -10.3%. Besides, under setting [2], the AC50 is 29.1 µM [rising, single point]. `Cc1cccc(N2CCN(c3nc(C)cc(C)c3C#N)CC2C)c1` (stereo not drawn): the cell number change was -10.8%.

Regarding `CCC(CC)C(=O)Nc1cccc(C(=O)N2CCCCCC2)c1`, the cell number change is -6.83%.

Consider `CCOc1ccc(C(=O)NCC(=O)N2CCN(c3ccccc3O)CC2)cc1`, for which the cell number change is -14.3%. As for `CC1CCN(C(=O)/C(=C/c2ccccc2Cl)c2ccccc2)CC1`, the cell number change is -31.8%. Also, the AC50 under setting [1] is 4.61 µM [falling, full curve, poor fit]. The AC50 under setting [2] was 6.51 µM [falling, single point]. In the case of `COc1ccc(-c2c(-c3ccccc3OC)sc3ccccc23)cc1OC`, the cell number change was determined as 21.4%. For the compound `COc1ccc(CNC(=O)COC(=O)c2n[nH]c3ccccc23)cc1OC`, the cell number change was -16.5%. The AC50 under setting [2] is 14.6 µM [falling, single point]. Consider `COCc1nnc(NC(=O)C2CC(=O)N(C3CCCCC3)C2)s1` (stereo not drawn), for which the cell number change turned out to be 13.4%. For the same compound, the concentration at half-maximal activity (AC50) under setting [2] was 29.1 µM [rising, single point].

Take `Cc1cc(SCC(=O)Nc2ccccc2C)nc(C)n1`: the cell number change turned out to be 58.4%. Further, under setting [1], the AC50 is 16.4 µM [rising, single point]. As for `Cc1ccc(S(=O)(=O)Nc2nc3ccccc3nc2N2CCc3ccccc3C2)cc1`, the cell number change is -41.1%. Besides, the AC50 under setting [1] was 11.6 µM [falling, partial curve, poor fit]. Further, the AC50 under setting [2] is 6.51 µM [falling, partial curve].

Turning to `CC(=O)Nc1ccc(OCC(O)Cn2c(C)nc3ccccc32)cc1` (stereo not drawn), the cell number change was -38.9%. Moreover, the AC50 under setting [1] was 29.1 µM [falling, single point]. In addition, the AC50 under setting [2] is 29.1 µM [falling, single point]. Take `CCN1CCN(CCCNC(=O)CNC(=O)c2nn(-c3ccc(OC)cc3OC)c(=O)c3ccccc23)CC1`: the cell number change worked out at 21.4%. Further, the AC50 under setting [2] was 29.1 µM [rising, single point]. As for `CCCc1cc(C(=O)Nc2cc(C)on2)no1`, the cell number change was -7.44%. Besides, the AC50 under setting [2] was 8.2 µM [falling, partial curve, poor fit].

For the compound `O=C(CCNS(=O)(=O)c1ccccc1)N1CCC(Cc2ccccc2)CC1`, the cell number change was found to be 9.25%.

Take `O=C(c1ccc2[nH]c3c(c2c1)CCCC3)N1CCN(c2ccc(F)cc2)CC1`: the cell number change was found to be 0.999%. For the same compound, the AC50 under setting [2] was 3.26 µM [rising, single point]. Take `Cc1ccc(-c2nc(COC(=O)C3=NN(c4ccccc4)C(=O)CC3)cs2)cc1`: the cell number change was -1.68%. Under setting [2], the AC50 was 14.6 µM [rising, partial curve]. Take `CCOCCCNC(=S)Nc1ccc(S(N)(=O)=O)cc1`: the cell number change was -0.705%. Also, the concentration at half-maximal activity (AC50) under setting [2] was 3.26 µM [rising, single point]. On to `O=C(COC(=O)c1cccc(S(=O)(=O)NCc2ccccc2)c1)NCC1CCCO1` (stereo not drawn), for which the AC50 under setting [2] was 6.51 µM [rising, partial curve, poor fit]. With `O=C(NCc1ccco1)C1CC(=O)N(c2cccc(Cl)c2)C1` (stereo not drawn), the cell number change is -7.89%. As to `Cc1ccccc1N1CC(C(=O)Nc2ccc(S(=O)(=O)N3CCOCC3)cc2)CC1=O` (stereo not drawn), the cell number change was -7.69%.

On to `COc1ccc(S(=O)(=O)N2CCCCCC2)cc1C(=O)N(C)Cc1ccc(C(C)(C)C)cc1`, for which the cell number change is -24.4%. The concentration at half-maximal activity (AC50) under setting [2] was 7.31 µM [falling, partial curve]. In the case of `Cc1ccc(N(C(=O)CNC(=O)c2ccco2)C(C(=O)NC2CCCCC2)c2ccncc2)cc1F` (stereo not drawn), the cell number change turned out to be 9.57%. Further, the AC50 under setting [2] is 6.51 µM [rising, single point]. With `COCc1cc(=O)oc2cc(NC(=O)c3ccc(C(C)(C)C)cc3)ccc12`, the cell number change was -20.8%. Turning to `COC(=O)Cc1ccc(NC(=S)NCCSc2ccc(C)cc2)cc1`, the cell number change was -27.4%. Under setting [1], the AC50 was 0.92 µM [rising, full curve, poor fit]. On to `COc1ccc(N2CCN(C(=O)CCNS(=O)(=O)c3ccccc3)CC2)cc1`, for which the cell number change was determined as 35.2%. `O=C(NC(CC(=O)N1CCN(c2ccc([N+](=O)[O-])cc2)CC1)c1ccccc1)c1ccccc1Cl` (stereo not drawn): the cell number change is -5.11%. Moreover, the AC50 under setting [2] was 0.103 µM [rising, full curve, poor fit].

Consider `COCCCN(C(=O)c1cc(Cl)nc2ccccc12)c1c(N)n(Cc2ccccc2)c(=O)[nH]c1=O`, for which the cell number change was 6.83%. Besides, under setting [2], the AC50 is 6.51 µM [rising, single point]. For the compound `Cc1nc2ccccc2c(=O)n1/N=C/c1ccc(O)c(O)c1O`, the cell number change worked out at 46.8%. The AC50 under setting [1] was 29.1 µM [rising, single point]. On to `O=C(O)c1cccc(S(=O)(=O)N(Cc2ccccc2)c2ccc(Cl)cc2)c1`, for which the cell number change was -17%. Further, the AC50 under setting [2] was 20.6 µM [falling, partial curve].

For `COc1cccc(/C=N/Nc2nc3ccccc3n3cnnc23)c1O`, the cell number change is -15.9%. Besides, the AC50 under setting [2] is 16.4 µM [falling, single point]. In the case of `O=[N+]([O-])c1ccc(CN2CCN(c3ccccc3)CC2)o1`, the cell number change stood at 11.7%. Moreover, the AC50 under setting [2] is 20.6 µM [rising, single point].

Source of the values: PubChem BioAssay AID2685 (National Center for Advancing Translational Sciences (NCATS), 2010).
